Tests used:
wild-type hDAAO = settings: apoprotein, no benzoate; ref Murtas et al. (2017); cited from earlier work
[1] = Standard DAAO activity assay of purified hDAAO variants (oxygen electrode, 28 mM D-alanine); format: biochemical; settings: purified protein, activity without vs with excess exogenous FAD
U87 glioblastoma cells = experiment: Confocal analysis of cellular distribution of EYFP-hDAAO variants in transiently transfected U87 cells; format: cell-based, human
Experimental: Human U87 glioblastoma cells (ATCC) were cultured in DMEM supplemented with 10% fetal bovine serum, 1 mM sodium pyruvate, 2 mM L-glutamine, 1% non-essential amino acids, 1% penicillin/streptomycin, and 1% amphotericin B (Euroclone), at 37°C in 5% CO2. The cells were transfected either with the pEYFP-hDAAO-C3 construct (for the expression of the wild-type enzyme downstream of the enhanced yellow fluorescent protein, EYFP) (Sacchi et al., [2008], [2011]), the pEYFP-hDAAO(R120L)-C3, or the pEYFP-hDAAO(R120E)-C3 expression vectors. The latter constructs were obtained by mutagenesis using the QuikChange Lightning Site-Directed Mutagenesis Kit (Agilent), and the following primers: 5′-[…]-3′ and 5′-[…]-3′ for the R120E substitution, and 5-[…]-3′ and 5′-[…]-3′ for the R120L substitution.
For transient transfection, 2 ×10^4 cells were seeded into eight-well chamber slides (Sarstedt). At 24 h after seeding, cells were transfected with 2 μg plasmid DNA using a 4:1 ratio of FuGENE transfection reagent (Promega) to DNA. Then, 12.5 μL of transfection mix was added to 500 μL medium per well. Protein expression levels were monitored by using a fluorescence microscope (Olympus IX51) equipped with a FITC filter and by Western blot analysis using an anti-hDAAO antibody (Davids Biotechnologie) (Sacchi et al., [2008], [2011]).
At 24, 48, and 72 h after transfection, cells were washed twice with PBS and fixed with ice-cold 4% p-formaldehyde and 4% sucrose for 10 min at room temperature. After fixation, cells were washed twice with PBS and blocked by incubation in PBS supplemented with 0.2% Triton X-100 and 4% horse serum for 30 min at room temperature. Peroxisomes were stained using rabbit polyclonal anti-PMP70 (peroxisomal membrane protein 70, Sigma), diluted 1:500 in PBS, 0.1% Triton X-100, and 4% horse serum overnight at 4°C; they were then washed twice in PBS and 1% horse serum and incubated for 1 h at room temperature (light protected) with goat anti-rabbit Dylight 550 secondary antibodies (Abcam) diluted 1:400 in PBS, 0.1% Triton X-100, and 1.5% horse serum. Cells were then extensively washed in PBS and nuclei were stained with DRAQ5™ (Thermo Scientific) and diluted 1:500 in PBS for 10 min at room temperature in the dark. Cells were washed three times with PBS and stored in PBS at 4°C until imaging.
Immunostained cells were imaged using an inverted laser scanning confocal microscope (TCS SP5, Leica Microsystems), equipped with a 63.0 ×1.25 NA plan apochromatic oil immersion objective. Confocal image stacks were acquired using the Leica TCS software with a sequential mode to avoid interference between each channel and without saturating any pixel. Cells in 10–15 non-magnified optical fields were analyzed for each condition (i.e., different EYFP-hDAAO expression constructs at different times after transfection). The fluorescence signal corresponding to the overexpressed EYFP-hDAAO variants was monitored by excitation at 514 nm (yellow channel); the peroxisomal and nuclear cellular compartments were imaged by excitation at 546 nm (red channel) and 647 nm (blue channel), respectively.
U87 glioblastoma cells were transiently transfected with a pEYFP-hDAAO-C3 plasmid encoding for EYFP-hDAAO chimeric proteins harboring R, E, or L at position 120 of the flavoenzyme. […] A similar amount of transfected cells (expressing EYFP-hDAAO protein) was obtained for all three constructs (Table 4). The percentage of cells showing a cytosolic, peroxisomal, and nuclear localization of the flavoenzyme was determined by comparing the yellow fluorescence signal of EYFP-hDAAO variants with those of the markers PMP-70 (for peroxisomes) and DRAQ5™ dye (for nuclei, Figure 5). The amount of cytosolic wild-type EYFP-hDAAO decreased with time after transfection (28% of the signal is cytosolic at 72 h vs. 94% at 24 h), as did the amount of nuclear signal (Table 4 and Figure 6). […]

Compound: Cc1cc2nc3c(=O)[nH]c(=O)nc-3n(C[C@H](O)[C@H](O)[C@H](O)COP(=O)(O)OP(=O)(O)OC[C@H]3O[C@@H](n4cnc5c(N)ncnc54)[C@H](O)[C@@H]3O)c2cc1C [FAD]
- amplitude of fluorescence change, FAD binding, free form, first phase (wild-type hDAAO): 40%
- amplitude of fluorescence change, FAD binding, free form, second phase (wild-type hDAAO): 60%

Compound: R120E: hDAAO variant with Arg120 substituted by glutamate (His-tagged from E. coli; EYFP-tagged in U87 cells)
- Holoenzyme content [1]: 100%
- T, transfected cells (U87 glioblastoma cells; 24 h after transfection): 24.9%
- T, transfected cells (U87 glioblastoma cells; 48 h after transfection): 24.4%
- T, transfected cells (U87 glioblastoma cells; 72 h after transfection): 19.2%

Compound: R120L: hDAAO variant with Arg120 substituted by leucine (His-tagged from E. coli; EYFP-tagged in U87 cells)
- Holoenzyme content [1]: 100%
- T, transfected cells (U87 glioblastoma cells; 24 h after transfection): 20.7%
- T, transfected cells (U87 glioblastoma cells; 48 h after transfection): 24.9%
- T, transfected cells (U87 glioblastoma cells; 72 h after transfection): 19.4%

Compound: Wild-type: recombinant wild-type human D-amino acid oxidase (His-tagged from E. coli; EYFP-tagged in U87 cells)
- T, transfected cells (U87 glioblastoma cells; 24 h after transfection): 24.3%
- T, transfected cells (U87 glioblastoma cells; 48 h after transfection): 17.4%
- T, transfected cells (U87 glioblastoma cells; 72 h after transfection): 16.0%

From paper PMC6862323, “Substitution of Arginine 120 in Human D-Amino Acid Oxidase Favors FAD-Binding and Nuclear Mistargeting” (Frontiers in Molecular Biosciences, 2019)
